Reference: article PMC7466635, “Identification of Quinazolinone Analogs Targeting CDK5 Kinase Activity and Glioblastoma Cell Proliferation” (Frontiers in Chemistry, 2020)
Results are given in words; binding and its absence hold for the method and conditions named. Some binding calls cover weakened binding; strength is not graded here.

Amino acid sequences for entries named in this document (tags omitted). Residues count along the entry.
UniProt Q15078, residues 99-307: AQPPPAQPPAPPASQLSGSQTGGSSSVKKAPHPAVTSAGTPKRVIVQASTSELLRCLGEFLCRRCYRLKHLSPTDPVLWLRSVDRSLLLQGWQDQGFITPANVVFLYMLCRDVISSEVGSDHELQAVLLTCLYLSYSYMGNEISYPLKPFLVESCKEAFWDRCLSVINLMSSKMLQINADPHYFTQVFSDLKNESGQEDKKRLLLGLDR

Target: Cy3-labeled CDKCONF5 biosensor (CDKCONF5 (C157 C190 C269) : C53S/C83S/C94S/C117S/C290S) (human) (UniProt Q00535)
Test: other fluorescence titration; CDKCONF5-Cy3 incubated with 400 nM 6His-p25 and/or 4 uM quinazolines JMV5800 and JMV5884; both purified

binding: binds
Substance: recombinant 6His-p25 (from UniProt Q15078 99-307) (domain or fragment)
